Source: paper PMC8699646
Read-outs that look alike come from different tables or passages of the source. These are yes or no findings as the source states them, for the method shown. Binding seen in cells or lysates may run through a third protein. Some entries that bind do so weakly or less than the wild type.

Sequences of proteins named here, by UniProt entry; tags and fusion partners are left off.
UniProt O00453: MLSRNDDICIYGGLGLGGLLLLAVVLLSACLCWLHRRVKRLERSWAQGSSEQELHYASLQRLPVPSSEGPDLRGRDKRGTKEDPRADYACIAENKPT
UniProt Q96KP1: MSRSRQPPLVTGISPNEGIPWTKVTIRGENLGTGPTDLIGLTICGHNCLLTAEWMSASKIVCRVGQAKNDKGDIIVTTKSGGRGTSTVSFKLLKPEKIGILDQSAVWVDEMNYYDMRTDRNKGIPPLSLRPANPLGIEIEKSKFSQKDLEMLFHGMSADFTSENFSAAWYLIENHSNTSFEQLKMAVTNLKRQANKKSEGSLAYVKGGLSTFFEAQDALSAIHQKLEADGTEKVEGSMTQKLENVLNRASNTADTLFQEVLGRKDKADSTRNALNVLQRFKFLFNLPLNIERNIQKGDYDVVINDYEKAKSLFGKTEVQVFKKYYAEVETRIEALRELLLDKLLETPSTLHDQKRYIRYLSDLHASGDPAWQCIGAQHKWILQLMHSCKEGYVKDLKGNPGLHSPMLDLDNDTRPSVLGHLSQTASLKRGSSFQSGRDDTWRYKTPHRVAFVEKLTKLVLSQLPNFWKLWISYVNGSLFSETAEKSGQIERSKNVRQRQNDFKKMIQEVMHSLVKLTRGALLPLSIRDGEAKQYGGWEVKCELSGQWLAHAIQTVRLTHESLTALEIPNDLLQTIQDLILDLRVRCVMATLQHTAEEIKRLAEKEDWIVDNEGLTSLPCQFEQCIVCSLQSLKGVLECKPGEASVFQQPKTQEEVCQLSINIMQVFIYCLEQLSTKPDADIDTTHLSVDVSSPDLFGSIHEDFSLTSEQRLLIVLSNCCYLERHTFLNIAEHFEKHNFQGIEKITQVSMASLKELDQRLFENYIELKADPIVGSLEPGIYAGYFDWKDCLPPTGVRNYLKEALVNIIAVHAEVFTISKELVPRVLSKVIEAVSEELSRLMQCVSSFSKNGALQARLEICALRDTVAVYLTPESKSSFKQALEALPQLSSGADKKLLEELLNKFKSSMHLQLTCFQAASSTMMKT

T1: RalGPS2 (Ral GEF with PH domain and SH3-binding motif 2) (human (endogenous in 5637 and HEK293)) (UniProt Q86X27)
T1 sequence: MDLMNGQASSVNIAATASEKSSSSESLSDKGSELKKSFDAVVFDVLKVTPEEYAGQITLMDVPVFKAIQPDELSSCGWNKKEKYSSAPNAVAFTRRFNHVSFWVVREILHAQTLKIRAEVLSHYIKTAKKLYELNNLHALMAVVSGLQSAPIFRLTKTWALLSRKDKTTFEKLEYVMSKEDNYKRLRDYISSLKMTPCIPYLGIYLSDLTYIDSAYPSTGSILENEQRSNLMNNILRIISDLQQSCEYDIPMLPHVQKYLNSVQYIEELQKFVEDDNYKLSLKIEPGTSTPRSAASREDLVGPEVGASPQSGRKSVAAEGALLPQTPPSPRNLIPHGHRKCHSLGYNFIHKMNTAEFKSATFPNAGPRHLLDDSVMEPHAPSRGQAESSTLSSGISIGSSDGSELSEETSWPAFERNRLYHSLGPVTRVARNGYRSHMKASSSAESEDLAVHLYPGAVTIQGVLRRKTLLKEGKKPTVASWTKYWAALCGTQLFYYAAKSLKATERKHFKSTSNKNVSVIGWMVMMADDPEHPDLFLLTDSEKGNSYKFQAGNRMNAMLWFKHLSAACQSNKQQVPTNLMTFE

B1: TNFα-induced protein 2 (TNFαIP2, also known as M-Sec) (protein, UniProt Q03169 1-654)
chain: MSEASSEDLVPPLEAGAAPYREEEEAAKKKKEKKKKSKGLANVFCVFTKGKKKKGQPSSAEPEDAAGSRQGLDGPPPTVEELKAALERGQLEAARPLLALERELAAAAAAGGVSEEELVRRQSKVEALYELLRDQVLGVLRRPLEAPPERLRQALAVVAEQEREDRQAAAAGPGTSGLAATRPRRWLQLWRRGVAEAAEERMGQRPAAGAEVPESVFLHLGRTMKEDLEAVVERLKPLFPAEFGVVAAYAESYHQHFAAHLAAVAQFELCERDTYMLLLWVQNLYPNDIINSPKLVGELQGMGLGSLLPPRQIRLLEATFLSSEAANVRELMDRALELEARRWAEDVPPQRLDGHCHSELAIDIIQITSQAQAKAESITLDLGSQIKRVLLVELPAFLRSYQRAFNEFLERGKQLTNYRANVIANINNCLSFRMSMEQNWQVPQDTLSLLLGPLGELKSHGFDTLLQNLHEDLKPLFKRFTHTRWAAPVETLENIIATVDTRLPEFSELQGCFREELMEALHLHLVKEYIIQLSKGRLVLKTAEQQQQLAGYILANADTIQHFCTQHGSPATWLQPALPTLAEIIRLQDPSAIKIEVATYATCYPDFSKGHLSAILAIKGNLSNSEVKRIRSILDVSMGAQEPSRPLFSLIKVG
B2: RalA GTPase (protein, UniProt P11233 1-206)
chain: MAANKPKGQNSLALHKVIMVGSGGVGKSALTLQFMYDEFVEDYEPTKADSYRKKVVLDGEEVQIDILDTAGQEDYAAIRDNYFRSGEGFLCVFSITEMESFAATADFREQILRVKEDENVPFLLVGNKSDLEDKRQVSVEEAKNRAEQWNVNYVETSAKTRANVDKVFFDLMREIRARKMEDSKEKNGKKKRKSLAKRIRERCCIL

Assays:
[1] = biological target: T1, RalGPS2 (Ral GEF with PH domain and SH3-binding motif 2) (human (endogenous in 5637 and HEK293)); assay: co-IP; HEK293 cells, endogenous proteins; serum-starved (0.5% FBS) 18 h, then stimulated with 10% FBS for 15 min (S) or left unstimulated (NS); IP with anti-RalGPS2, anti-LST1 or anti-Sec5 antibodies, western blot
[2] = biological target: transmembrane MHC class III protein leukocyte-specific transcript 1 (LST1) (human (endogenous in HEK293)) (UniProt O00453); assay: as above
[3] = biological target: T1, RalGPS2 (Ral GEF with PH domain and SH3-binding motif 2) (human (endogenous in 5637 and HEK293)); assay: co-IP; 5637 cells, endogenous proteins; serum-starved (0.5% FBS) 18 h, then stimulated with 10% FBS for 15 min (S) or left unstimulated (NS); IP with anti-RalGPS2 antibodies, western blot
[4] = biological target: T1, RalGPS2 (Ral GEF with PH domain and SH3-binding motif 2) (human (endogenous in 5637 and HEK293)); assay: co-IP; HEK293 cells, endogenous proteins; serum-starved (0.5% FBS) 18 h, then stimulated with 10% FBS for 15 min (S) or left unstimulated (NS); IP with anti-RalGPS2, anti-LST1 or anti-Sec5 antibodies, western blot; remark: listed apart in the source
[5] = biological target: Sec5 (human (endogenous in HEK293)) (UniProt Q96KP1); assay: as above
[6] = biological target: transmembrane MHC class III protein leukocyte-specific transcript 1 (LST1) (human (endogenous in HEK293)) (UniProt O00453); assay: as above; remark: listed apart in the source

binding [1]	binding [4]	other results	Molecule
binds	–	–	transmembrane MHC class III protein leukocyte-specific transcript 1 (LST1) (from UniProt O00453 1-97)
binds	–	binding [2]: binds	Sec5 (from UniProt Q96KP1 1-924)
–	binds	binding [3]: binds	B1
–	binds	binding [5]: binds; binding [6]: binds	B2
